Reference: publication PMC10163288
The list shows a part of the results.

B1: il2ra_site2_2erj_sap_19_mot_35d2dc24e2c4431f89e6f806b163ecf8_0001_af2_000000103_0001_35_49_H_._HHH_b1_02824_0001_0000800030_0000001_0_0001 (protein)
chain: SSSSSSVEEEVRELLEEAERLYEEGDLHEVYRLLSEAMHLASRHNNDELLEEIAKVVERLSSSSS
B2: il2ra_site2_2erj_normal_mot_HHH_b2_05044_af2_000000138_0001_1_15_H_._HHH_b2_07555_0001_0000600021_0000001_0 (protein)
chain: SSSSDTAELLNEAFELARELFKRGDPEEAREVLEEVLRELEELNDPDAVETLEKLLRFLEESSSS
B3: il2ra_site1_3nfp_sap_15_mot_46d73865503fbedcaf0f3a45445d594c_0001_af2_000000151_0001_1_12_H_._HEEHE_2475_0001_0000500042_0000001_0_0001_af2pred_0001_af2pred_1 (protein)
chain: SSSSSRERIRELLERAKELLKNGNPEEAEELLREALELAEERGSPVLRKFLEQALELIELSSSSS
B4: il2ra_site1_2b5i_normal_mot_HHH_b2_04461_000000219_0001_1_19_H_._HHH_b2_07080_0001_0000900018_0000001_0_af2pred_dldesign_0_af2pred (protein)
chain: SSSSSLEDAKEARELFLEANTLSDVAARRALLERALELAEKAKCNLLARLIRWALANLDSSSSSS
B5: il2ra_site1_2b5i_sap_16_mot_3e13e3ed3b6e195f81032bb5ce78c6bf_0001_1_af2_000000143_0001_17_32_H_._HHH_b2_03076_af2_0001_0000800023_0000001_0_0001_af2pred_0001_af … (protein)
chain: SSSSSEAIERIDELWAEASRLWLNGNPEEAEEVLEEALKLAEEENDEVARRDIREFLERGSSSSS
B6: il2ra_site2_2erj_normal_mot_HHH_b2_00732_af2_000000006_0001_23_40_H_._HHH_b2_02708_0001_0000400019_0000001_0 (protein)
chain: SSSSDESLEAIEEFIQKLIEEGNLEEAEAYAELAIRMLRRAGDEEAVEELEELLREIRELGSSSS
B7: il2ra_site1_3nfp_sap_18_mot_ems_3hC_836_0002_000000087_0001_24_40_H_._HHH_b1_03209_0001_0000500012_0000001_0_0001 (protein)
chain: DMEKLVEWIVRSFKENPRAVKRFIEHALEVAGDPEMREEFLRRLEELARELGLDELKEVLEELRK
B8: il2ra_site2_2erj_normal_mot_ems_3hC_1315_af2_000000245_0001_45_63_H_._a2bf7c1b5df5f4a6a28f683756f784c8_0001_1_0001_0000100004_0000001_0_af2pred_0001_1_af2pred_s … (protein)
chain: SEEVVEKLRRAVEEGTLEEVLEELLKEAEEKGDPELWLAVLAAIRLLQLGVPPEEVVEQFERLLR
B9: il2ra_site2_3nfp_sap_18_mot_HHH_b1_03612_af2_000000124_0001_42_57_H_._HHH_b2_00556_0001_0000700040_0000001_0_0001 (protein)
chain: SSSSDHEELVEMALRSVKVLRRQGNPEEARKSVEYALAAAKLLNDEELLEELEQLLEELKSSSSS
B10: il2ra_site1_2b5i_normal_mot_HHH_b2_04910_000000118_0001_1_19_H_._HHH_b1_03302_0001_0000400037_0000001_0_af2pred_dldesign_0_af2pred (protein)
chain: SSSSSPTGKRLREMFLEADRLKQAGKDEEAKEVLERALEEATAAKNNLYLRMIQLALESLSSSSS
B11: il2ra_site1_2b5i_normal_mot_ems_3hM_3687_af2_000000248_0001_45_64_H_._HHH_b2_07463_0001_0000100007_0000001_0_af2pred_dldesign_0_af2pred (protein)
chain: SSSSSPLAEEVERTLAEAEELIKAGKRREALELLEEIYKKVAAADDEELEDKVYEFAKKLSSSSS
B12: il2ra_site2_3nfp_normal_mot_HHH_b1_04429_af2_000000130_0001_1_18_H_._HHH_b2_03321_0001_0000100007_0000001_0_af2pred_0001_af2pred (protein)
chain: SSSSSEEEELKILATFALSWAQHLEDPELRRELEELAEELEEKGDPELAEEILRLLLEISSSSSS
B13: il2ra_site2_2erj_normal_mot_HHH_b1_03990_af2_000000075_0001_19_35_H_._ems_p1-16H-GBL-16H-GABBL-16H_0048_0001_0001_0001_0001_0000200004_0000001_0_af2pred_0001_af … (protein)
chain: SSSSDEVAELALRVSKIAREKGDEEAFRKALEIFARYQRGRLSEEEASELLERLLKEAESSSSSS
B14: il2ra_site1_3nfp_sap_10_mot_cc4219192d8ccd35c40e7b68f9a57604_0001_af2_000000124_0001_16_32_H_._HHH_b2_07250_0001_0000100001_0000001_0_0001 (protein)
chain: SSSSSEIEEEVRELLEEAEQLLKEGDWEEAAKVVEEAMKLASQANDDELDQLIMEWVRKLSSSSS
B15: il2ra_site1_2b5i_normal_mot_HHH_b1_05687_000000128_0001_1_14_H_._ems_3hC_243_0001_0001_0000200011_0000001_0_af2pred_dldesign_0_af2pred (protein)
chain: DIEALAAEVERLANETEESLEDYDEALALRREVSDLLYKALHSPDPEEARRLLEEAKRLLEARKS
B16: il2ra_site1_3nfp_normal_mot_e80b558ee5422d85aa46efdc370d0602_0001_af2_000000114_0001_54_65_H_._HHH_b1_03316_af2_0001_0000100003_0000001_0 (protein)
chain: SSSSDALEWLEKAIEEAFENNDKLQLRALIKILELALKKIGDPEAEKLLREAEELLEELNSSSSS
B17: il2ra_site1_2b5i_sap_16_mot_HHH_b2_03902_000000280_0001_1_17_H_._HHH_b2_04021_0001_0000100006_0000001_0_0001_af2pred_dldesign_0_af2pred (protein)
chain: SSSSSAKRKEVEELVRRARELRAAGRYREALEALDEAKKLADEIDDEEKADEIDRLARELSSSSS
B18: il2ra_site2_2erj_sap_16_mot_HHH_b2_07792_af2_000000252_0001_18_34_H_._HHH_b1_07975_af2_0001_0000200006_0000001_0_0001 (protein)
chain: SSSSSDTEEEVEELLEQAKRITDLREVYRLAVEALHLAARVQDPELQRLVAEVVEELSRSSSSSS
B19: il2ra_site1_2b5i_sap_17_mot_HHH_b1_07134_000000048_0001_1_20_H_._b9b1aa0f98829a21a591038753170461_0001_1_af2_0001_0000200027_0000001_0_0001_af2pred_dldesign_0_a … (protein)
chain: SARRILESALKQYPDDRSLRLALRALELKEEGREEEVERLRAELEALAAAGDKNAAEALYLVENG

Target: il2ra, P01589
Test: yeast display titration

Apparent Kd, inactive:
B1 no binding seen, B2 no binding seen, B3 no binding seen, B4 no binding seen, B5 no binding seen, B6 no binding seen, B7 no binding seen, B8 no binding seen, B9 no binding seen, B10 no binding seen, B11 no binding seen, B12 no binding seen, B13 no binding seen, B14 no binding seen, B15 no binding seen, B16 no binding seen, B17 no binding seen, B18 no binding seen, B19 no binding seen
